From the supplement of paper PMC3334620
Over roughly 33,000 sequences, “E-score (-0.5 to 0.5)” has its median near -0.0014; the highest 2% begin near 0.25. Some of the results follow.

These sequences were tested against T1, Cad1 (UniProt P24813) (assay: PBM E-score (8-mer binding enrichment) (E-score (-0.5 to 0.5)); higher = stronger / more preferred TF binding). Settings: protein concentration: 100 nM; construct: GST-full length.
T1 sequence: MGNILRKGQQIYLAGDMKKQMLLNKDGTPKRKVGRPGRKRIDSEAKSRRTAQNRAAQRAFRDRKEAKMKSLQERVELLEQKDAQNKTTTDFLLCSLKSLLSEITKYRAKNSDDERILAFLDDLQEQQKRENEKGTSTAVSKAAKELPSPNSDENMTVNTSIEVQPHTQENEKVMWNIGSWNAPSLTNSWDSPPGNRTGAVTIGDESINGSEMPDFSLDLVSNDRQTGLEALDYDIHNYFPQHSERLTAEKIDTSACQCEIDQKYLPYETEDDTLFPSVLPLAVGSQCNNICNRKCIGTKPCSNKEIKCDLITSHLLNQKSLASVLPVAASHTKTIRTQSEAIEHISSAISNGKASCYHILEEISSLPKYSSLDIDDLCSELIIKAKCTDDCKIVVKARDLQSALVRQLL
Procedure: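 Universal 'all 10-mer' protein binding microarrays (Agilent AMADID 015681) probed with GST-tagged S. cerevisiae TFs (full-length or DBD) made by in vitro transcription/translation (PURExpress), about 100-200 nM. Bound TF was detected with fluorescent anti-GST. Each ungapped 8-mer (which stands for itself and its reverse complement) is scored by the PBM enrichment score (E-score), a modified Wilcoxon-Mann-Whitney statistic from -0.5 to +0.5, computed with the Universal PBM Analysis Suite. Scale: above 0.35 generally sequence-specific binding.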

Going from GCGATGAA to CTTCAAAC, the “PBM E-score” value rises from 0.108 to 0.145.

First: AGCTAGTA
Second: AACACGGT
The “PBM E-score” value of the first is higher: 0.0145 for the first, -0.0697 for the second.

Going from GAGGAGGC to ATGGTAGA, the “PBM E-score” value rises from -0.236 to 0.0551.

Compared with CTGAAACA, AGTATTTA is higher in “PBM E-score” value: 0.0746 for the first, 0.16 for the second.

Going from AGCTAGCT to CTAACGGA, the “PBM E-score” value rises from 0.162 to 0.294.

Going from GGAACATA to CGATGTAG, the “PBM E-score” value falls from 0.0521 to -0.117.

First: CTTTCTTC
Second: AACAAATT
The “PBM E-score” value of the first is lower: -0.034 for the first, 0.228 for the second.

Compared with AGGATACG, AGAAATAC is higher in “PBM E-score” value: -0.141 for the first, 0.0988 for the second.

Compared with CCTCGCGA, AGGCGGTC is lower in “PBM E-score” value: 0.121 for the first, -0.224 for the second.

Going from ACAAGTGG to CGATGAAC, the “PBM E-score” value rises from 0.0151 to 0.102.

Compared with ACATGCAA, ATCCGTAC is higher in “PBM E-score” value: -0.129 for the first, 0.177 for the second.

Compared with GACAATCA, CTTAAACC is lower in “PBM E-score” value: 0.0526 for the first, -0.109 for the second.

Compared with GGACCACC, GGCCCACA is lower in “PBM E-score” value: 0.0199 for the first, 0.0128 for the second.

First: CGAGTAAG
Second: CCTGTTTA
The “PBM E-score” value of the first is higher: 0.146 for the first, 0.0698 for the second.

First: CACGTGGC
Second: GTAGTCAC
The “PBM E-score” value of the first is higher: -0.06 for the first, -0.193 for the second.

First: CTAGAGGA
Second: AGAGCTAG
The “PBM E-score” value of the first is lower: -0.272 for the first, 0.0182 for the second.

Going from GCCTGCAA to AGTGTAGC, the “PBM E-score” value falls from 0.0411 to -0.0088.

Going from ACTTCGAT to CGCTACTC, the “PBM E-score” value falls from 0.0731 to 0.0265.

First: AAGGGGTG
Second: AAAGAATC
The “PBM E-score” value of the first is lower: -0.176 for the first, -0.0708 for the second.

First: GATCTGCC
Second: ATACGATC
The “PBM E-score” value of the first is lower: 0.001 for the first, 0.11 for the second.

Compared with CCGTTCCC, ACAGCAAT is higher in “PBM E-score” value: -0.0828 for the first, 0.11 for the second.

Going from GAGCAGCA to AGCATGGG, the “PBM E-score” value falls from 0.0911 to -0.341.

Going from GAATGAGA to TTGCGAAA, the “PBM E-score” value rises from 0.117 to 0.158.

Going from AAGTTTCC to AAGCAAGC, the “PBM E-score” value falls from 0.122 to 0.0372.

Compared with AGTGAGCG, GTAAATAC is lower in “PBM E-score” value: 0.129 for the first, 0.0213 for the second.

Compared with GGAGTGCA, AATGTGCA is higher in “PBM E-score” value: -0.00305 for the first, 0.0742 for the second.

Compared with GAAAAGTA, CGCTTACA is higher in “PBM E-score” value: 0.049 for the first, 0.208 for the second.

First: GCCCATAA
Second: GAGACTGA
The “PBM E-score” value of the first is lower: -0.19 for the first, -0.0515 for the second.

Compared with GAATCGAC, CTAACCTA is lower in “PBM E-score” value: 0.176 for the first, -0.129 for the second.

First: AATTACCA
Second: GGGCAGGA
The “PBM E-score” value of the first is higher: 0.241 for the first, 0.065 for the second.

First: AAGCTTCC
Second: ATTATGTC
The “PBM E-score” value of the first is lower: -0.0751 for the first, 0.181 for the second.

Compared with TGTAGCAA, GCTCACCA is lower in “PBM E-score” value: -0.0131 for the first, -0.187 for the second.

Going from CTGTAGCC to ACCCTGCA, the “PBM E-score” value rises from -0.0863 to 0.117.

Going from CAACATGG to ATGGCACG, the “PBM E-score” value falls from -0.0363 to -0.238.

First: ATCGGCGA
Second: AACGATTA
The “PBM E-score” value of the first is lower: -0.112 for the first, 0.0716 for the second.

First: ATACGTAT
Second: ATAGATTC
The “PBM E-score” value of the first is higher: 0.298 for the first, -0.0176 for the second.

First: GCTCCCCA
Second: CTTGGGCA
The “PBM E-score” value of the first is lower: -0.383 for the first, 0.103 for the second.

Going from AAAAGTGT to GGGACGTA, the “PBM E-score” value falls from -0.074 to -0.209.

Compared with GCGTAGCA, TAACCCTA is lower in “PBM E-score” value: -0.012 for the first, -0.113 for the second.

First: ACCGCCGT
Second: CATGCATG
The “PBM E-score” value of the first is lower: -0.0802 for the first, 0.252 for the second.

Compared with AGTGGCCA, AACTCATT is higher in “PBM E-score” value: -0.00136 for the first, 0.0357 for the second.

Going from TAGTTTAA to GACCGGGC, the “PBM E-score” value falls from 0.168 to -0.104.

First: CGAGACTC
Second: GAGGTCGC
The “PBM E-score” value of the first is higher: 0.0936 for the first, -0.137 for the second.

First: CTAAGTAG
Second: AGTACCGG
The “PBM E-score” value of the first is higher: 0.0818 for the first, -0.179 for the second.

First: AGAATACC
Second: GTATTGGA
The “PBM E-score” value of the first is higher: 0.136 for the first, 0.00944 for the second.

Going from GATTGAGA to AAGGTTGG, the “PBM E-score” value falls from 0.115 to -0.163.

First: CTTAGTCA
Second: AAGCTACG
The “PBM E-score” value of the first is higher: 0.38 for the first, -0.0714 for the second.

Going from CCACTCCG to GATAGTCC, the “PBM E-score” value rises from 0.0604 to 0.111.

First: AACGATAC
Second: GCATCGCA
The “PBM E-score” value of the first is higher: 0.0534 for the first, -0.216 for the second.

Going from AATTAGAT to GCCGAAAC, the “PBM E-score” value falls from 0.252 to 0.061.

First: CCACGTAA
Second: GCAATGCC
The “PBM E-score” value of the first is lower: -0.00447 for the first, 0.0643 for the second.

Going from CCTAAGAA to GTCCCCCA, the “PBM E-score” value falls from -0.0389 to -0.361.

First: ACCGGATC
Second: ATATTCAA
The “PBM E-score” value of the first is lower: -0.0514 for the first, 0.144 for the second.

Compared with GGACAAGA, ATTTTACG is higher in “PBM E-score” value: -0.144 for the first, 0.21 for the second.

Compared with CGAATGAG, AGACGAGA is lower in “PBM E-score” value: 0.147 for the first, 0.0185 for the second.

Going from ATAGATCC to ACTGACAT, the “PBM E-score” value falls from -0.015 to -0.0482.

Compared with CCTCTAAC, GGCTAAAA is higher in “PBM E-score” value: -0.0848 for the first, -0.0353 for the second.

Compared with ACGATCCA, TAATAACA is higher in “PBM E-score” value: -0.116 for the first, 0.15 for the second.

Compared with GCCATGTA, AACTTTAT is lower in “PBM E-score” value: 0.107 for the first, 0.0164 for the second.

First: AGACAAAG
Second: CAGTAATC
The “PBM E-score” value of the first is lower: 0.0401 for the first, 0.164 for the second.

Compared with CCTAGGCG, TTACTAAA is higher in “PBM E-score” value: -0.098 for the first, 0.374 for the second.

Compared with GTATTCCA, CGAAGTGC is higher in “PBM E-score” value: -0.00627 for the first, 0.0965 for the second.

First: CGTGCAGC
Second: ATAATGGA
The “PBM E-score” value of the first is lower: 0.0278 for the first, 0.0878 for the second.

Compared with ACACAACC, GTCAGAAA is higher in “PBM E-score” value: 0.00808 for the first, 0.0249 for the second.

Compared with CATGATTC, GGCAAGTA is lower in “PBM E-score” value: -0.0435 for the first, -0.149 for the second.

First: AATAAAAC
Second: ATACTATG
The “PBM E-score” value of the first is lower: -0.0186 for the first, 0.00277 for the second.

Compared with ACATGCTG, GGGGGCCA is lower in “PBM E-score” value: 0.0632 for the first, -0.411 for the second.

Compared with ACCCATTC, CTACACAC is lower in “PBM E-score” value: -0.0248 for the first, -0.0573 for the second.

First: AATAAGCG
Second: CCCGTAGC
The “PBM E-score” value of the first is higher: 0.117 for the first, -0.186 for the second.

Going from AATTCACA to CAACGTTA, the “PBM E-score” value rises from 0.138 to 0.168.

Compared with GACGGGGC, CCTGGCAA is lower in “PBM E-score” value: -0.0773 for the first, -0.0805 for the second.

First: GGCCTCGA
Second: AGCTCCAA
The “PBM E-score” value of the first is lower: 0.0388 for the first, 0.0502 for the second.

Going from AGGCGCGA to ATCAACCC, the “PBM E-score” value rises from 0.0546 to 0.0896.

Going from GCTTCCCC to TCAAGGGA, the “PBM E-score” value rises from -0.337 to -0.0776.

Going from ATTACCGC to GTCACTAA, the “PBM E-score” value rises from 0.066 to 0.145.

Compared with CATTTCCG, TAGTCTCA is lower in “PBM E-score” value: 0.0769 for the first, -0.0308 for the second.

Going from AAGGGTGC to ACCCCACA, the “PBM E-score” value rises from -0.0474 to -0.0413.

Compared with CTCGGAGC, AACCTACT is lower in “PBM E-score” value: 0.137 for the first, 0.107 for the second.

First: CAAAAAGA
Second: CGTTAGGC
The “PBM E-score” value of the first is higher: 0.0675 for the first, -0.104 for the second.

Compared with ACCCAGAG, CTACGACA is higher in “PBM E-score” value: -0.171 for the first, 0.00715 for the second.

Compared with CCCGCCAG, AGAGTTCA is lower in “PBM E-score” value: -0.0572 for the first, -0.132 for the second.

Compared with CATTTGGA, AGGGCTGG is lower in “PBM E-score” value: 0.0851 for the first, 0.0297 for the second.

Going from AACATATA to CTAAGTTC, the “PBM E-score” value rises from 0.0078 to 0.0252.

First: CGGGGGGA
Second: GACCCGTC
The “PBM E-score” value of the first is lower: -0.484 for the first, -0.231 for the second.

Compared with AATGTCTA, TTGCAAAA is higher in “PBM E-score” value: 0.0795 for the first, 0.179 for the second.

Going from GGAGATCC to CAAGCAAG, the “PBM E-score” value falls from -0.105 to -0.156.
